These results are taken from publication PMC10454571.

These are yes or no findings as the source states them, for the method shown. Binding seen in cells or lysates may run through a third protein. Here binding means that the protein was enriched with, or labelled near, the bait; the list need not be complete.

Test [1] has as its target His6 PfGEXP15 UD, shorter fragment (853-1266 bp) (Plasmodium falciparum) (UniProt Q8IJ89). Put plainly: affinity purification with mass spectrometry; His6 PfGEXP15 fragments on nickel agarose beads mixed overnight at 4 °C with soluble extracts of wild-type trophozoites/schizonts in 20 mM Tris, 150 mM NaCl, 0.5% Triton X-100, pH 7.5; tetR bacterial protein as negative control; three replicates; only the target purified.

In test [2] the target is PfGEXP15-GFP-DDD-HA (Plasmodium falciparum 3D7) (UniProt Q8IJ89). Nature of the test: affinity purification with mass spectrometry; GFP-Trap magnetic agarose on soluble extracts of trophozoites and schizonts of the PfGEXP15-GFP-DDD-HA line, overnight at 4 °C, parental strain as control, three biological replicates; 20 mM Tris, 150 mM NaCl, 0.5% Triton X-100, pH 7.5 washes.

The target of test [3] is His6 PfGEXP15 GYF, shorter fragment (2053-2347 bp) (Plasmodium falciparum) (UniProt Q8IJ89). Nature of the test: affinity purification with mass spectrometry; His6 PfGEXP15 fragments on nickel agarose beads mixed overnight at 4 °C with soluble extracts of wild-type trophozoites/schizonts in 20 mM Tris, 150 mM NaCl, 0.5% Triton X-100, pH 7.5; tetR bacterial protein as negative control; three replicates; only the target purified.

B1: exportin-7 (protein, UniProt C0H530 1-1198)
chain: MSESELQQLQVLCEAMYCGNKEEQNQAHTILLPLVNNVMNVSKLKNILGSTNHVHTLIFTTSGLLQLITNEWNKIDQKEKDELKEFVISYLYNKGVDLLNLSTNILGNFVRLYVRIVKLSWLENTNYSLITKQVEYFLNSVTSHWIIGLYIYAALIEDMHPQCGVNSAKSRRCAISFRDYVLKDIFKVGIETLEEFVKGSIRIELRIEENRLLIKVLELIYNSLSFDFMGTMINDESSDENISLMIPQSWDIFNEKNIPKLFFDMYELCMSEEDDIRNCCGKYCLRSLILLGSLRKTFFTNEKQKVHYMNEFLGGINKIIEKKIGLNDEDCFHEMCRLIGKIDTSVRLQELSTYSNFLSWCHNIYLFTMDGMKNWKYLCNSKHYLLGIWSNMLNIIPPKVIKEINNRTDEKDLLKDVLSNKNIFAKKNSISDNFNSHDIDNKYLIICDYIYDITIIFINTRLELANYICEKGDNCEIENPLYNDVLRSEQLELISNLSKLQYNFIGAKLLSIFYELKSNHENNLISKTVFIEQTTWLVFIIASIISSSAISNMKNSSFNNFKINSELCFLVFSLMDQTNKSPEVFEYLEFAYLNCLELFKKVYISGKKNNQFLKEMRSVALKIIPDGGSNMYPNNNNNNNNNNNNNNNSNNIINNNNSSNSCGINNTLGFTTGSTNNPNTLLNNNMNNFATPSLITNENDDDNNDPLIDLIISKILFNLNNRVEYEQIIKRSLDLFHDLVSGMNIVCLEDKTPKLIVFARLLLKNEKILNLLHNRSTKFLEISKYYKYRTNYYLILTKLLFMEQNLVSSTFEKYIAPINNILECIKREININGKDIILKNNEIKLTFIGALRDLRGICMACNNVETYNMFFNFFINSHPLEDNQMNILTSLVDVIWNSYDICIPFLKFMCEFVYNKSQRITFPKSSPNGILLFKVVSNILIIISNNLLQKDKFIDIYKEKYKIISLLLNMFNNCLNGDFVNFAIFDLYNDDILNNSLNLALNMCLVIPTNDLLSYIKHLKPYFSFLDLVTKNFFQRILNLEFQLIADIIHNVKEGLCSFDYTVSMTCCSILDNIVTYIFTNRKNSTEQGQIIKNFLESQPQALKEVLNLMFHLILGGDFGSTWSMSQPLLGLILLDAQGYFKIQEQLISQQSEEKKQKLRHSFCKLMDHIESNLAPNNRENFTRNLYTFAQEIRNILI
In the case of B1, the binding entry in test [1] is “binds”.

B2: 60S ribosomal protein L26 (protein, UniProt O77364 1-126)
chain: MKFNKQKSSSRRKMRKAHFTAPAGLRRKIMSSKLSKELRLKYKTRSLPVRKDDEVLICRGHNHGREGKVVKINRKRYKIYVERVTREKVNGESTFIGIHPSNVVLTKLKVDKNRKKILDRKAAKEN
Consider B2, for which the binding entry in test [2] and in test [3] was “binds” each time.

B3: 40S ribosomal protein S15 (protein, UniProt Q8IDB0 1-151)
chain: MGRMYGKGKGISSSTLPYKRKQPSWLKQKPSEIEDAIIKLAKKGQTPSQIGATLRDNYGIPQVKSVTGNKILRILRAQGIATTIPEDLYFLIKKAVSMRKHLEKNKKDKDCKFRLILTESKIHRISRYYKRKKLLPSNWKYQSSTASALIA
For the molecule B3, the binding entry in test [2] and in test [3] was “binds” each time.

B4: 60S ribosomal protein L32 (protein, UniProt Q8I3B0 1-131)
chain: MAVKKVGKIIKKRTKKFTRFQSNRFMRVKPAWRKPRGIDCRVRRRYKGTNLMPSIGYGSNKKTKFLLPNNKYKYVVKNVKEMEPLIMNHTKYCVQIAHNVSSKKRKQIIERAKQMNVSVINAKARLQKTEE
Turning to B4, the binding result in test [2] and in test [3] was “binds” throughout.
